Only a part is listed here, and it is no random draw.
The targets below were run with COC(=O)C#Cc1ccccc1 [methyl 3-phenylpropiolate] (assay: log2 ratio of iodoacetamide-alkyne labeling of the cysteine site, DMSO over compound (competition); higher = stronger covalent engagement of the cysteine by the compound, active = 1 or more). Details: 500 µM; treatment time 1 h; system: HEK293T cell lysate.
In short: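 The log2 competition ratio per cysteine is defined as mean reporter intensity in control channels over mean reporter intensity in compound channels. Lysate from HEK293T cells (2 mg/mL) received electrophile (500 µM) or vehicle for 1 h at ambient temperature, followed by iodoacetamide alkyne for 1 h. Samples were clicked to sCIP-TMT reagents, pooled, trypsin-digested overnight at 37 °C, streptavidin-enriched, acid-eluted and run on Orbitrap Eclipse LC-MS/MS with FAIMS, with quantification in FragPipe. Three replicates with duplicate channels were used, and any cysteine quantified in only one replicate was excluded.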

Amino acid sequences for entries named in this document (tags omitted). A change or cut given only in a name is not applied to a line headed by its entry.
UniProt O60343: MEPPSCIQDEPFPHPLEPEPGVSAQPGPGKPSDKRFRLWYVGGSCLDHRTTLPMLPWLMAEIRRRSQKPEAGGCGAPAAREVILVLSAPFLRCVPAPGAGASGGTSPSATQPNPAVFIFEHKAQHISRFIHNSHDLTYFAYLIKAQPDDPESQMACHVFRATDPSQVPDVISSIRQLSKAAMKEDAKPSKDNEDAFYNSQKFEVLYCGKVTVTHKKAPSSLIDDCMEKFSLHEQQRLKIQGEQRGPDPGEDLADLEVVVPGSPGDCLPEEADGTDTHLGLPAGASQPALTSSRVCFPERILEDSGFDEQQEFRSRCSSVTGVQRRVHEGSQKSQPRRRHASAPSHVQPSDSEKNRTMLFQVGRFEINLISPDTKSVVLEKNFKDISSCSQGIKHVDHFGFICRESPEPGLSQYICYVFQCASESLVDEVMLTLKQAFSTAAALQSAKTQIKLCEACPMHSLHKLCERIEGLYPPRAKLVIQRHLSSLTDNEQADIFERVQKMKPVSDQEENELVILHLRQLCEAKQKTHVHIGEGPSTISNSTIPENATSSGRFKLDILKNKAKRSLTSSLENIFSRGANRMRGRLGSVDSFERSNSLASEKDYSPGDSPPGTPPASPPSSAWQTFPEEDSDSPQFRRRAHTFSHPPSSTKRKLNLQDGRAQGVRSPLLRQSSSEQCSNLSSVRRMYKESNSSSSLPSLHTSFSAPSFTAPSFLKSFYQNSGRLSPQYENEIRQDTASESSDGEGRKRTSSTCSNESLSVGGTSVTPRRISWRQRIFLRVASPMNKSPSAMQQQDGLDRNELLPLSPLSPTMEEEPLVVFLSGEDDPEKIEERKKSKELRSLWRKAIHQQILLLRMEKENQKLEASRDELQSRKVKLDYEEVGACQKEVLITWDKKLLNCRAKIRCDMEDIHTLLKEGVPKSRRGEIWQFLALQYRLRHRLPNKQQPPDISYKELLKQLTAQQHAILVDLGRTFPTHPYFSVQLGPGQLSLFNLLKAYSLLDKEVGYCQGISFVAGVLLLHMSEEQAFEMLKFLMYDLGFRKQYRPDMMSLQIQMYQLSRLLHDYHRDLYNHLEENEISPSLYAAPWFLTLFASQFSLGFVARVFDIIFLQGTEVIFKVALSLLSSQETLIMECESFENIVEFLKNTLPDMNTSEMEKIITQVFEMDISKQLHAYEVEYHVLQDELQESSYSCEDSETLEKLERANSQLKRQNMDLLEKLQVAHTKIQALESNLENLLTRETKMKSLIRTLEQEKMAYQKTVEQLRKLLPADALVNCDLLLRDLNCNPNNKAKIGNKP
UniProt O75165, whole entry: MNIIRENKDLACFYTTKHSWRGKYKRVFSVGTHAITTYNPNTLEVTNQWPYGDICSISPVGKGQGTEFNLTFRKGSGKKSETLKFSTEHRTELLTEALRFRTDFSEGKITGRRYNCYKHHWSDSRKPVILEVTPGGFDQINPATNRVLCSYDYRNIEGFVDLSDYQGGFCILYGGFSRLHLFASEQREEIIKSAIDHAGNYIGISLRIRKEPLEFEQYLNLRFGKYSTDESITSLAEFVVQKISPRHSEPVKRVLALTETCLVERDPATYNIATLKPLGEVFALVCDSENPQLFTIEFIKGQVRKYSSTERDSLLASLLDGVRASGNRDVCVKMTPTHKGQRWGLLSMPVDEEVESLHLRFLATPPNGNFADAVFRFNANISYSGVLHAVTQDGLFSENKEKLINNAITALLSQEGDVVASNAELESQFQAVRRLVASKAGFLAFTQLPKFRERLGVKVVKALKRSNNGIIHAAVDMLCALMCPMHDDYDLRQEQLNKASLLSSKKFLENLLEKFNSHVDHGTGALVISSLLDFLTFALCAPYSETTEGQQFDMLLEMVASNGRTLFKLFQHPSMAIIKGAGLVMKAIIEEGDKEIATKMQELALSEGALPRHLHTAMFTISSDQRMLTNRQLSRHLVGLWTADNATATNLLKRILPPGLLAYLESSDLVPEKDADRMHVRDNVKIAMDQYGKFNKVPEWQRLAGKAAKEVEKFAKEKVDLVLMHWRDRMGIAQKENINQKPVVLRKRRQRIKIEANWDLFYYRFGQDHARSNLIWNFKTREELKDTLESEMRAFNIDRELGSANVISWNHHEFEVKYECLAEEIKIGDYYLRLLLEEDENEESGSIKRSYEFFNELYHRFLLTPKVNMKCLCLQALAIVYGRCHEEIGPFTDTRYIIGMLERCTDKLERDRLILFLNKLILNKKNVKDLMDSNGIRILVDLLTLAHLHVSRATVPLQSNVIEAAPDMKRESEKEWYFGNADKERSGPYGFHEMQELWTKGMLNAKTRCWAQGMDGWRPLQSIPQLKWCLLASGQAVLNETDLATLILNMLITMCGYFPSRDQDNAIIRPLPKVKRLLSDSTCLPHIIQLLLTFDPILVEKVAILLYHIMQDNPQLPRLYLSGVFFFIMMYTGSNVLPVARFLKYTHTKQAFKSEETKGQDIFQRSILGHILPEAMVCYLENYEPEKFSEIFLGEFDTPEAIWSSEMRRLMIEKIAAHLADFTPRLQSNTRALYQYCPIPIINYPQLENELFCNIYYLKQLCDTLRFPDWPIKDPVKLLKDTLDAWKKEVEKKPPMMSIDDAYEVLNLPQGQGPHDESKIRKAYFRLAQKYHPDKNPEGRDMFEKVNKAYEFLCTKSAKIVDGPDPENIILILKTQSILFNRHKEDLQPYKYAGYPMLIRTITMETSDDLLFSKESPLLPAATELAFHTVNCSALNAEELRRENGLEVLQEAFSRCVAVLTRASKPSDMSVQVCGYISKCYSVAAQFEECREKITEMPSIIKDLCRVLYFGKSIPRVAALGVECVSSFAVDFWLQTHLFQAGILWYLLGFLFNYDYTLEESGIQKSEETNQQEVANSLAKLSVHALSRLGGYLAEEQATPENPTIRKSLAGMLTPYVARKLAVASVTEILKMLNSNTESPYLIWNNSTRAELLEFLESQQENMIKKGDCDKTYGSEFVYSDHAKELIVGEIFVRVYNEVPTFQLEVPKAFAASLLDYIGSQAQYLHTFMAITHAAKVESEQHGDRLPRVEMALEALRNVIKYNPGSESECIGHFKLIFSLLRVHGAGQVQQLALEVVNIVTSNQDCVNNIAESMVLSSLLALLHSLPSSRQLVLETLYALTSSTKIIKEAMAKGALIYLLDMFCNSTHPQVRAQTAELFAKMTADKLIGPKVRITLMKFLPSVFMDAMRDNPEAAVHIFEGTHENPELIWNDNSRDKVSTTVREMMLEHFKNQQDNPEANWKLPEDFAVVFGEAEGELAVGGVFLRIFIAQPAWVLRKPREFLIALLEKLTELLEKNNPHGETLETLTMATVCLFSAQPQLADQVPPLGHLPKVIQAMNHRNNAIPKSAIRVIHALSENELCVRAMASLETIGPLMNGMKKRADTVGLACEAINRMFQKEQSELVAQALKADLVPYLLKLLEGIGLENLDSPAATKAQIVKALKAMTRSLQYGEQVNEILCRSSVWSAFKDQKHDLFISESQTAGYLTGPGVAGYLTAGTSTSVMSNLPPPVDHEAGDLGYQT
UniProt O75528: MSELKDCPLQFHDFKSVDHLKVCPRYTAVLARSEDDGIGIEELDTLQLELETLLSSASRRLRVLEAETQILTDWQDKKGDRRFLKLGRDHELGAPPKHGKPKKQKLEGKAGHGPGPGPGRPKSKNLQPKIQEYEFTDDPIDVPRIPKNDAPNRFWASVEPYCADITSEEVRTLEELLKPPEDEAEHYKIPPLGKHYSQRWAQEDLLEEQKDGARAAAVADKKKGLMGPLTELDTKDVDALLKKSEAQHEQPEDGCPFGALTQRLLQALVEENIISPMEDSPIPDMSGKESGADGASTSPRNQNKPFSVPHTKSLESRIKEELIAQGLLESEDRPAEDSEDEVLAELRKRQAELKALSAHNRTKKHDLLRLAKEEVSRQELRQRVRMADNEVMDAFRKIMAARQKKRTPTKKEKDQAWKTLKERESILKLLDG
UniProt O43583: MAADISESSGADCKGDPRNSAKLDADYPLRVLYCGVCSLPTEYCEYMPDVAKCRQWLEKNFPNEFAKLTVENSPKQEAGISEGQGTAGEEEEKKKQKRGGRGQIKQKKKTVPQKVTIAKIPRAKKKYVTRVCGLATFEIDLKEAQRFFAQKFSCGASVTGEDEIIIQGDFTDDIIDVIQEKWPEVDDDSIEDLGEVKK
UniProt O60447: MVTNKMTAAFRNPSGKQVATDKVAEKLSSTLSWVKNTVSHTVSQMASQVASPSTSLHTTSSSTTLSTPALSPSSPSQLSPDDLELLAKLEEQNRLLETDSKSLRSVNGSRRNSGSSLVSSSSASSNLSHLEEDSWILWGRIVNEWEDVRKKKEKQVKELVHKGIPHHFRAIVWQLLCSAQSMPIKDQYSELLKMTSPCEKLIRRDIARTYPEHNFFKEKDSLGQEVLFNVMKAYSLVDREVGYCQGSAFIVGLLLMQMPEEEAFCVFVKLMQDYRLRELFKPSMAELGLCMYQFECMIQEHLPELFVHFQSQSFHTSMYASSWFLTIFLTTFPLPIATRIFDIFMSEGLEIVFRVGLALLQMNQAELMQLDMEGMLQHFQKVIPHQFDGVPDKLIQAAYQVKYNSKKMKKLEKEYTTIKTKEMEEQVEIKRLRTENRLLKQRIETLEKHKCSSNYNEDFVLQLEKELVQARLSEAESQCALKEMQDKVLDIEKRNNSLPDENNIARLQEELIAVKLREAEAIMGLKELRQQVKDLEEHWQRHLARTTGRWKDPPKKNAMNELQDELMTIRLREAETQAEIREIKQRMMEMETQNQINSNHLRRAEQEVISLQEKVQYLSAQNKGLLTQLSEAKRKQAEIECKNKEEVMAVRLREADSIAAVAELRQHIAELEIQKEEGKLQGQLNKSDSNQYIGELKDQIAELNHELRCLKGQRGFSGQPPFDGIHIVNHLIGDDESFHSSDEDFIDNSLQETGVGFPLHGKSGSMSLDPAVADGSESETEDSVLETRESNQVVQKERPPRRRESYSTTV
UniProt O43390: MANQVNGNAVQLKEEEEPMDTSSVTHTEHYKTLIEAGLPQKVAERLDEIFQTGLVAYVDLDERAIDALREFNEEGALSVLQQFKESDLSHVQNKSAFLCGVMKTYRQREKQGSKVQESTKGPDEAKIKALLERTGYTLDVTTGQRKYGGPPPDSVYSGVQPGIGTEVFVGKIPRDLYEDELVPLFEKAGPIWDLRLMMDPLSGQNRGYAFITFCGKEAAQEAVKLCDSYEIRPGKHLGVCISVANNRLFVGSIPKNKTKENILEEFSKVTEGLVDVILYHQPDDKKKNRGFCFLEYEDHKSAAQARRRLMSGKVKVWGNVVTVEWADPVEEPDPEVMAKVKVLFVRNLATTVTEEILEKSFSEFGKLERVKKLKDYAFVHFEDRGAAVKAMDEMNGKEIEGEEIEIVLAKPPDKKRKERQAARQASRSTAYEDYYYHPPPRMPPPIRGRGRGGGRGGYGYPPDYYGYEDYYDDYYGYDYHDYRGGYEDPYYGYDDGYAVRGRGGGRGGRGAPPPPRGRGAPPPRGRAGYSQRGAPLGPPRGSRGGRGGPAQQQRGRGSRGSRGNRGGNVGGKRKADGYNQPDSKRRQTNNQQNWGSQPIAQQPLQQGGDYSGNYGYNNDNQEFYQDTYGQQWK
UniProt O60701: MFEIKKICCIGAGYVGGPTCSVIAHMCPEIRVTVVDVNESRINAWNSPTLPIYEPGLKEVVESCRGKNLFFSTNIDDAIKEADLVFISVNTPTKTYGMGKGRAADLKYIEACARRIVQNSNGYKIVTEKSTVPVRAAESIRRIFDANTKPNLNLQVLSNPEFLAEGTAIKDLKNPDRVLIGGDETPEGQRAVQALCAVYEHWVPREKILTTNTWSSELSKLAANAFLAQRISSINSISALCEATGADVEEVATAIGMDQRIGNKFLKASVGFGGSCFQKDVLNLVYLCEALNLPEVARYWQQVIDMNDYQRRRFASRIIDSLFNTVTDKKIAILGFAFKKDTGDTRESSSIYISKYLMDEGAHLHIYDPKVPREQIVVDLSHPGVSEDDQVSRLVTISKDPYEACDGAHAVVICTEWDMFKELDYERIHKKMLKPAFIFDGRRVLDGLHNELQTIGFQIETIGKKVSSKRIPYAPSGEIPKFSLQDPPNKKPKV
UniProt O43542: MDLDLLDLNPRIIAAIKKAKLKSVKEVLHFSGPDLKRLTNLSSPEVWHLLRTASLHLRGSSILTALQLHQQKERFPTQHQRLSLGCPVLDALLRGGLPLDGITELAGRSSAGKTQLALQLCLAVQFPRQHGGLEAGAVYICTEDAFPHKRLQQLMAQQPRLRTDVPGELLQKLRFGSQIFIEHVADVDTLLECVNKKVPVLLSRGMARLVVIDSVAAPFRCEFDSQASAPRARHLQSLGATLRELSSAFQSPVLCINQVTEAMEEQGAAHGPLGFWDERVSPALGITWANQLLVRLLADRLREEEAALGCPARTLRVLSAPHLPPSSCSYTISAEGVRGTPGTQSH

| Target | log2 ratio of iodoacetamide-alkyne labeling |
| --- | --- |
| RECQL5 C664 (UniProt O94762) | active: 1.47 |
| TBC1D4 C266 (UniProt O60343) | inactive: 0.671 |
| ANKRD17 C906 (UniProt O75179) | inactive: 0.821 |
| UniProt O75521_C380 | inactive: 0.234 |
| UniProt O43303_C535 | inactive: 0.837 |
| DNAJC13 C2181 (UniProt O75165) | inactive: 0.124 |
| TOM1 C37 (UniProt O60784) | inactive: 0.537 |
| UniProt O75528_C7 | active: 1.05 |
| CPNE3 C506 (UniProt O75131) | inactive: -0.262 |
| AQR C28 (UniProt O60306) | inactive: 0.104 |
| KIF1B C66 (UniProt O60333) | inactive: 0.257 |
| SF3B1 C1035 (UniProt O75533) | inactive: 0.375 |
| DENR C132 (UniProt O43583) | inactive: -0.0841 |
| OPA1 C801 (UniProt O60313) | inactive: 0.154 |
| SNRNP200 C428 (UniProt O75643) | inactive: 0.244 |
| LRCH4 C105 (UniProt O75427) | inactive: 0.43 |
| RNF40 C890 (UniProt O75150) | inactive: 0.371 |
| CSDE1 C53 (UniProt O75534) | inactive: 0.329 |
| UniProt O75582_C214 | inactive: 0.398 |

| Target | log2 ratio of iodoacetamide-alkyne labeling |
| --- | --- |
| ZW10 C650 (UniProt O43264) | inactive: 0.214 |
| EVI5 C451 (UniProt O60447) | inactive: 0.245 |
| PAK3 C424 (UniProt O75914) | inactive: 0.442 |
| NBN C487 (UniProt O60934) | inactive: 0.78 |
| TADA2A C20 (UniProt O75478) | inactive: 0.0236 |
| UniProt O60610_C1227 | inactive: 0.284 |
| FLNB C1280 (UniProt O75369) | inactive: -0.0904 |
| HNRNPR C240 (UniProt O43390) | inactive: 0.0333 |
| UniProt O75153_C184 | inactive: 0.0459 |
| UGDH C196 (UniProt O60701) | inactive: -0.421 |
| UniProt O60610_C796 | inactive: 0.413 |
| MRPS14 C91 (UniProt O60783) | inactive: 0.375 |
| MPDZ C1794 (UniProt O75970) | inactive: 0.137 |
| PTCD1 C183 (UniProt O75127) | inactive: 0.469 |
| XRCC3 C86 (UniProt O43542) | inactive: 0.448 |
| SNRNP200 C1278 (UniProt O75643) | inactive: 0.11 |
| KPNA6 C467 (UniProt O60684) | inactive: 0.346 |
| RSL1D1 C211 (UniProt O76021) | inactive: 0.0138 |

Single entries from the list:
log2 ratio of iodoacetamide-alkyne labeling with FLNB C1280 (UniProt O75369) reads inactive: -0.0904
log2 ratio of iodoacetamide-alkyne labeling with PAK3 C424 (UniProt O75914) reads inactive: 0.442

Reference: the supplement of paper PMC11006884
